Measured values as given in the supplement of paper PMC10032668.
This is one part of the list. The list holds hits alone, and they repeat only in part.

The chains behind the UniProt entries cited, without tags or fusion partners.
HNRNPU, Q00839, UniProt Q00839, whole entry: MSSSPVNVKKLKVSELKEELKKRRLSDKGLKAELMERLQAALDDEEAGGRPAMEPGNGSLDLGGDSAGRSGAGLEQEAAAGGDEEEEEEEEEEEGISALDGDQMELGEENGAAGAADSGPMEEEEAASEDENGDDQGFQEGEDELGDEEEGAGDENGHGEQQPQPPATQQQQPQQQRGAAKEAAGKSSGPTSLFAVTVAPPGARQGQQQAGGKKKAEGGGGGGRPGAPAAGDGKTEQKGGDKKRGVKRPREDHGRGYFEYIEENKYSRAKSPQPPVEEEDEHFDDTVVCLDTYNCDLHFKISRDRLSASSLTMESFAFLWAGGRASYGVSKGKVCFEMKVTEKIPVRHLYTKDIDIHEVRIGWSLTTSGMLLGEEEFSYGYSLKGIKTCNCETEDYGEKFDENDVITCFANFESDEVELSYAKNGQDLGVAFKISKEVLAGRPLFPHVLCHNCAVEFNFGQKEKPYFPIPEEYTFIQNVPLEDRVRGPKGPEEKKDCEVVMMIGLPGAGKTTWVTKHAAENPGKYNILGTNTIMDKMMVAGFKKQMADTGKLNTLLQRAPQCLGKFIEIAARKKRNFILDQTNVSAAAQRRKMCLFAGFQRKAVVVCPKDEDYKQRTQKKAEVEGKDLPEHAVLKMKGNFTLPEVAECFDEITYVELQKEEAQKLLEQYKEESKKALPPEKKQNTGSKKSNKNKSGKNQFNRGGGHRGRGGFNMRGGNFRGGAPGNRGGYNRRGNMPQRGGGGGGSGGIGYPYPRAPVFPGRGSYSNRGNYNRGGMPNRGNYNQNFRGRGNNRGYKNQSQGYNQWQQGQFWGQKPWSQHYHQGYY
TF, P02787, UniProt P02787, whole entry: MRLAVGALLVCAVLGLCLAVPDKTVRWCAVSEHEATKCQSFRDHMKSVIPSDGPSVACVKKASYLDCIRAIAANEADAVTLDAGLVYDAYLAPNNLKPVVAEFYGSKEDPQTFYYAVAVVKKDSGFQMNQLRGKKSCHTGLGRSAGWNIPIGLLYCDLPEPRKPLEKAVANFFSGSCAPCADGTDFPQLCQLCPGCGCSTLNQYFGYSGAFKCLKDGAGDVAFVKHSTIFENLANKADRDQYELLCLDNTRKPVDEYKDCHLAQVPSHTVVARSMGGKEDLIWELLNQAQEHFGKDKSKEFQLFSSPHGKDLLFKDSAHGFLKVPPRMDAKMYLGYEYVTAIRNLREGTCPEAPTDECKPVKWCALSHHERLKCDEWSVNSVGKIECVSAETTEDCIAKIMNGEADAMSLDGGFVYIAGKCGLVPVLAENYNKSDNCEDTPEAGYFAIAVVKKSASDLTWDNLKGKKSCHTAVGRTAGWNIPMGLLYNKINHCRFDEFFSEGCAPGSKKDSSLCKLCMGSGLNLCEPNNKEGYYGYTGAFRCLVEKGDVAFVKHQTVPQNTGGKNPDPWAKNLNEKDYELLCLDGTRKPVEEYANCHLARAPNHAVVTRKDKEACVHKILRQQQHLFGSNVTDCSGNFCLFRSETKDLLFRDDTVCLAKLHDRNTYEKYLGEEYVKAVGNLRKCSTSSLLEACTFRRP
TRAPPC5, Q8IUR0, UniProt Q8IUR0, whole entry: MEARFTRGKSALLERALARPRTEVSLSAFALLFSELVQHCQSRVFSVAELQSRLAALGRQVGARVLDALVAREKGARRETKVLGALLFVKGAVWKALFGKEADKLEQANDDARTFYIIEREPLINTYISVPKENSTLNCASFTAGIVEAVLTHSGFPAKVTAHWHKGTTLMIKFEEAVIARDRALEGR
BUB3, O43684, UniProt O43684, whole entry: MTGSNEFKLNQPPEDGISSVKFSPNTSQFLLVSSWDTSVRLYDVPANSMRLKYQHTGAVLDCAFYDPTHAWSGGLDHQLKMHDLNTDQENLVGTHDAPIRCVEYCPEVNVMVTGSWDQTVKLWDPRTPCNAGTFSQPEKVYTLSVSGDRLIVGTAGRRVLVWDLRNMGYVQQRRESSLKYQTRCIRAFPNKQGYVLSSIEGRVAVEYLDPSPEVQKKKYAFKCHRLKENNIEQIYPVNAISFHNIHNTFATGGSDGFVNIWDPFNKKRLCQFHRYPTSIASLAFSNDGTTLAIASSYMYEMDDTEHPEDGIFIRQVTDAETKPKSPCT
GTF2F2, P13984, UniProt P13984, whole entry: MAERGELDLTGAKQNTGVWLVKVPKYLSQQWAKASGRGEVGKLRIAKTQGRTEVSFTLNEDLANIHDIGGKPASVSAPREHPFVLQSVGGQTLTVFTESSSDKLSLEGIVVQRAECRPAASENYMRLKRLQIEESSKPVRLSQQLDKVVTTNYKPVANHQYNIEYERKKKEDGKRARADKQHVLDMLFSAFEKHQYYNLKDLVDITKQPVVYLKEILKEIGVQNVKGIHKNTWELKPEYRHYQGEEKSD
HBS1L, Q9Y450, UniProt Q9Y450, whole entry: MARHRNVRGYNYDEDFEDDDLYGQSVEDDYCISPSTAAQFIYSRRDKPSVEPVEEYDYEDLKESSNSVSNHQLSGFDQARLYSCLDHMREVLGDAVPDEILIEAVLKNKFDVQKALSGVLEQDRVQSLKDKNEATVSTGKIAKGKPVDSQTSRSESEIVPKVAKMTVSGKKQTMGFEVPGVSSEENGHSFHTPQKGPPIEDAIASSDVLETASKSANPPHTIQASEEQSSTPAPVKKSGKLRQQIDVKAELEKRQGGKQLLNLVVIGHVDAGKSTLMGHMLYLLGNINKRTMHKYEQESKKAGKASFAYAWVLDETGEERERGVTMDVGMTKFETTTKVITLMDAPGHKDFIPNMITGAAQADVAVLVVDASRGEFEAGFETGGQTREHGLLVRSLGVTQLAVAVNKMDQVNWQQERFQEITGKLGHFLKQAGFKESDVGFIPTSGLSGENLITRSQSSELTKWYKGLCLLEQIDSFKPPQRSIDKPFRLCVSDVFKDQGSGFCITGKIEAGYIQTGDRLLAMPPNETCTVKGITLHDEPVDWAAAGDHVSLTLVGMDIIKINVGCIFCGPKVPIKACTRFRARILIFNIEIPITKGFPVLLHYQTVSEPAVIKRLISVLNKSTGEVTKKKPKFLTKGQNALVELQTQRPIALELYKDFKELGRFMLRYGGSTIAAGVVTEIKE
PFN1, P07737, UniProt P07737, whole entry: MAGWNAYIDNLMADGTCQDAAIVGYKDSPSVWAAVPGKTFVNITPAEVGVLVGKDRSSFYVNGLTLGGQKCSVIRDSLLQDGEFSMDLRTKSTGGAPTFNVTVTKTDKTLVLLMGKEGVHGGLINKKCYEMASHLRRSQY
RBBP5, Q15291, UniProt Q15291, whole entry: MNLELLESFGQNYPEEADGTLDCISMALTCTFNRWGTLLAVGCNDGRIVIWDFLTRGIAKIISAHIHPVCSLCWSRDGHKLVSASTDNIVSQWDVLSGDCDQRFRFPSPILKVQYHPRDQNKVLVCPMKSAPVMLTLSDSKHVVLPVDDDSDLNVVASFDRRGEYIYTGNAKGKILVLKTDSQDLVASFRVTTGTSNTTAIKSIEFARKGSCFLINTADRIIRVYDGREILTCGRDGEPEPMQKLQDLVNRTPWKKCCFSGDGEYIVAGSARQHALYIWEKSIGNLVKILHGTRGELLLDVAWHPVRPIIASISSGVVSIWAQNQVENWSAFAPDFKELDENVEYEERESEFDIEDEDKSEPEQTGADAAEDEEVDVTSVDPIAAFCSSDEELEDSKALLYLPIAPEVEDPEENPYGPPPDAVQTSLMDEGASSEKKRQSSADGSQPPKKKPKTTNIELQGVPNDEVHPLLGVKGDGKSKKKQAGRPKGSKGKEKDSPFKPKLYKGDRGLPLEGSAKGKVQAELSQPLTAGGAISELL

What was measured:
Assay in all cases: PRISMA enrichment of interactor (LFQ) in peptide spot vs all other peptide spots (log2 fold change); higher = stronger / more specific binding of the interactor to the peptide
ATP5PF, P18859 = target: ATP5PF, P18859
Protocol: (§1)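 PRISMA: 15-aa overlapping tiles (offset 8 aa) of 60 microproteins, plus SOS1/GLUT1 control peptides, were spot-synthesized on cellulose membranes in triplicate. Membranes were incubated with benzonase-treated HEK293T lysate, and bound proteins were identified by LC-MS/MS with LFQ. Enrichment is the log2 fold change of each protein in one spot versus all other spots. Only interactors passing the significance cutoff are listed.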

BYSL, Q13895 = target: BYSL, Q13895
Protocol: as §1

CALU, O43852 = target: CALU, O43852
Protocol: as §1

CHCHD2, Q9Y6H1 = target: CHCHD2, Q9Y6H1
Protocol: as §1

DDX56, Q9NY93 = target: DDX56, Q9NY93
Protocol: as §1

ECHS1, P30084 = target: ECHS1, P30084
Protocol: as §1

EIF5B, O60841 = target: EIF5B, O60841
Protocol: as §1

HAT1, O14929 = target: HAT1, O14929
Protocol: as §1

HERC5, Q9UII4 = target: HERC5, Q9UII4
Protocol: as §1

HNRNPU, Q00839 = target: HNRNPU, Q00839
Protocol: as §1

MKI67, P46013 = target: MKI67, P46013
Protocol: as §1

MTDH, Q86UE4 = target: MTDH, Q86UE4
Protocol: as §1

NMD3, Q96D46 = target: NMD3, Q96D46
Protocol: as §1

OGFR, Q9NZT2 = target: OGFR, Q9NZT2
Protocol: as §1

RAE1, P78406 = target: RAE1, P78406
Protocol: as §1

TF, P02787 = target: TF, P02787
Protocol: as §1

TRAPPC5, Q8IUR0 = target: TRAPPC5, Q8IUR0
Protocol: as §1

VCP, P55072 = target: VCP, P55072
Protocol: as §1

ATP5MG, O75964 = target: ATP5MG, O75964
Protocol: as §1

BUB3, O43684 = target: BUB3, O43684
Protocol: as §1

C1QBP, Q07021 = target: C1QBP, Q07021
Protocol: as §1

CD2BP2, O95400 = target: CD2BP2, O95400
Protocol: as §1

CIAO1, O76071 = target: CIAO1, O76071
Protocol: as §1

CPSF1, Q10570 = target: CPSF1, Q10570
Protocol: as §1

ERLIN2, O94905 = target: ERLIN2, O94905
Protocol: as §1

GPC4, O75487 = target: GPC4, O75487
Protocol: as §1

GTF2F2, P13984 = target: GTF2F2, P13984
Protocol: as §1

HBS1L, Q9Y450 = target: HBS1L, Q9Y450
Protocol: as §1

IPO11, Q9UI26 = target: IPO11, Q9UI26
Protocol: as §1

KLF16, Q9BXK1 = target: KLF16, Q9BXK1
Protocol: as §1

MAP3K20, Q9NYL2 = target: MAP3K20, Q9NYL2
Protocol: as §1

MCMBP, Q9BTE3 = target: MCMBP, Q9BTE3
Protocol: as §1

MPDU1, O75352 = target: MPDU1, O75352
Protocol: as §1

NR3C1, P04150 = target: NR3C1, P04150
Protocol: as §1

NUSAP1, Q9BXS6 = target: NUSAP1, Q9BXS6
Protocol: as §1

PEX11B, O96011 = target: PEX11B, O96011
Protocol: as §1

PFN1, P07737 = target: PFN1, P07737
Protocol: as §1

PSIP1, O75475 = target: PSIP1, O75475
Protocol: as §1

PWP1, Q13610 = target: PWP1, Q13610
Protocol: as §1

RAB11A, P62491 = target: RAB11A, P62491
Protocol: as §1

RABL3, Q5HYI8 = target: RABL3, Q5HYI8
Protocol: as §1

RBBP5, Q15291 = target: RBBP5, Q15291
Protocol: as §1

RIC8A, Q9NPQ8 = target: RIC8A, Q9NPQ8
Protocol: as §1

SMC3, Q9UQE7 = target: SMC3, Q9UQE7
Protocol: as §1

SPATS2L, Q9NUQ6 = target: SPATS2L, Q9NUQ6
Protocol: as §1

STMN1, P16949 = target: STMN1, P16949
Protocol: as §1

TBCD, Q9BTW9 = target: TBCD, Q9BTW9
Protocol: as §1

UFL1, O94874 = target: UFL1, O94874
Protocol: as §1

ZC2HC1A, Q96GY0 = target: ZC2HC1A, Q96GY0
Protocol: as §1

EHGHHKMELPDYRQW [NDUFB3]
PRISMA enrichment of interactor (log2) (ATP5PF, P18859): 6.09
PRISMA enrichment of interactor (log2) (BYSL, Q13895): 4.39
PRISMA enrichment of interactor (log2) (CALU, O43852): 5.78
PRISMA enrichment of interactor (log2) (CHCHD2, Q9Y6H1): 4.63
PRISMA enrichment of interactor (log2) (DDX56, Q9NY93): 4.51
PRISMA enrichment of interactor (log2) (ECHS1, P30084): 4.74
PRISMA enrichment of interactor (log2) (EIF5B, O60841): 5.07
PRISMA enrichment of interactor (log2) (HAT1, O14929): 4.23
PRISMA enrichment of interactor (log2) (HERC5, Q9UII4): 4.59
PRISMA enrichment of interactor (log2) (HNRNPU, Q00839): 4.24
PRISMA enrichment of interactor (log2) (MKI67, P46013): 5.64
PRISMA enrichment of interactor (log2) (MTDH, Q86UE4): 6.14
PRISMA enrichment of interactor (log2) (NMD3, Q96D46): 6.37
PRISMA enrichment of interactor (log2) (OGFR, Q9NZT2): 4.48
PRISMA enrichment of interactor (log2) (RAE1, P78406): 5.88
PRISMA enrichment of interactor (log2) (TF, P02787): 5.49
PRISMA enrichment of interactor (log2) (TRAPPC5, Q8IUR0): 8.36
PRISMA enrichment of interactor (log2) (VCP, P55072): 6.18

APVDAAELPQRRRHR [RNF10]
PRISMA enrichment of interactor (log2) (ATP5MG, O75964): 8.25
PRISMA enrichment of interactor (log2) (BUB3, O43684): 4.2
PRISMA enrichment of interactor (log2) (C1QBP, Q07021): 6.09
PRISMA enrichment of interactor (log2) (CD2BP2, O95400): 3.99
PRISMA enrichment of interactor (log2) (CIAO1, O76071): 5.2
PRISMA enrichment of interactor (log2) (CPSF1, Q10570): 4.54
PRISMA enrichment of interactor (log2) (ERLIN2, O94905): 4.98
PRISMA enrichment of interactor (log2) (GPC4, O75487): 6.29
PRISMA enrichment of interactor (log2) (GTF2F2, P13984): 8.82
PRISMA enrichment of interactor (log2) (HBS1L, Q9Y450): 4.66
PRISMA enrichment of interactor (log2) (IPO11, Q9UI26): 7.73
PRISMA enrichment of interactor (log2) (KLF16, Q9BXK1): 5.8
PRISMA enrichment of interactor (log2) (MAP3K20, Q9NYL2): 6.16
PRISMA enrichment of interactor (log2) (MCMBP, Q9BTE3): 4.45
PRISMA enrichment of interactor (log2) (MPDU1, O75352): 4.97
PRISMA enrichment of interactor (log2) (NR3C1, P04150): 4.71
PRISMA enrichment of interactor (log2) (NUSAP1, Q9BXS6): 4.68
PRISMA enrichment of interactor (log2) (PEX11B, O96011): 10.7
PRISMA enrichment of interactor (log2) (PFN1, P07737): 4.63
PRISMA enrichment of interactor (log2) (PSIP1, O75475): 5.27
PRISMA enrichment of interactor (log2) (PWP1, Q13610): 4.61
PRISMA enrichment of interactor (log2) (RAB11A, P62491): 5.66
PRISMA enrichment of interactor (log2) (RABL3, Q5HYI8): 5.67
PRISMA enrichment of interactor (log2) (RBBP5, Q15291): 4.24
PRISMA enrichment of interactor (log2) (RIC8A, Q9NPQ8): 5.04
PRISMA enrichment of interactor (log2) (SMC3, Q9UQE7): 7.2
PRISMA enrichment of interactor (log2) (SPATS2L, Q9NUQ6): 6.36
PRISMA enrichment of interactor (log2) (STMN1, P16949): 6.9
PRISMA enrichment of interactor (log2) (TBCD, Q9BTW9): 7.82
PRISMA enrichment of interactor (log2) (UFL1, O94874): 5.45
PRISMA enrichment of interactor (log2) (ZC2HC1A, Q96GY0): 5.02
